The results in this text go back to the supplement of paper PMC12873370.

Some of the results follow. Repeats are few or missing, and single values can be far off.

The first test has as its system MEPP (mouse ovarian epithelium Trp53/Pten KO). Description: cell viability relative to untreated (fraction); higher = less growth inhibition. The settings on record: 5 µM; 3 days.
`CC[C@H](C)C(=O)O[C@H]1CCC=C2C=C[C@H](C)[C@H](CC[C@@H]3C[C@@H](O)CC(=O)O3)[C@H]21` showed a cell viability of 1.03.

`CC(=O)Nc1ccc(O)cc1` yielded a cell viability of 0.729.

On to `CC[C@@H](CO)NCCN[C@@H](CC)CO`, for which the cell viability was 1.1.

`C[C@H]1[C@H](OC(=O)CCC(=O)O)O[C@@H]2O[C@@]3(C)CC[C@H]4[C@H](C)CC[C@@H]1[C@@]24OO3` registered a cell viability of 0.562.

In the case of `COc1cc(C(=O)O)ccc1O`, the cell viability was found to be 0.846.

`O=C(O)C=Cc1ccc(O)cc1`: the cell viability was 1.2.

The molecule `COc1cnc(NS(=O)(=O)c2ccc(N)cc2)nc1` showed a cell viability of 0.819.

`C[N+](C)(C)CC(O)CC(=O)[O-]` (stereo not given): the cell viability amounted to 0.948.

Take `N[C@@H](Cc1c[nH]c2ccc(O)cc12)C(=O)O`: the cell viability was determined as 0.968.

`CN1CCC[C@H]1c1cccnc1` had a cell viability of 0.858.

As to `NCC(=O)CCC(=O)O`, the cell viability was 1.05.

As to `N[C@@H](CCC(=O)O)C(=O)[O-].[Na+]`, the cell viability was 0.883.

The molecule `NC(=O)c1ccc([N+](=O)[O-])cc1Cl` had a cell viability of 0.838.

As to `Nc1ccc(O)c(C(=O)O)c1`, the cell viability turned out to be 0.918.

In the case of `O=c1ccn([C@@H]2O[C@H](COP(=O)(O)OP(=O)(O)OP(=O)(O)O)[C@@H](O)[C@H]2O)c(=O)[nH]1`, the cell viability stood at 1.25.

Regarding `C/C=C\c1ccc(O)c(OC)c1`, the cell viability came to 0.902.

Take `C/C=C1/[C@H](O[C@@H]2O[C@H](CO)[C@@H](O)[C@H](O)[C@H]2O)OC=C(C(=O)OC)[C@H]1CC(=O)OCCc1ccc(O)c(O)c1`: the cell viability came out at 1.14.

In the case of `C[C@]12CCC(=O)C=C1CC[C@@H]1[C@@H]2[C@@H](O)C[C@@]2(C)[C@H]1CC[C@]2(O)C(=O)CO`, the cell viability was determined as 0.863.

On to `C[C@@H](c1ncncc1F)[C@](O)(Cn1cncn1)c1ccc(F)cc1F`, for which the cell viability worked out at 1.06.

In turn, `C[Se]CC[C@H](N)C(=O)O` returned a cell viability of 1.03.

Molecule `C=C1/C(=C\C=C2/CCC[C@]3(C)[C@@H]([C@H](C)CCCC(C)(C)O)CC[C@@H]23)C[C@@H](O)C[C@@H]1O` displayed a cell viability of 0.829.

The molecule `CC(C)C(O)C(=O)O` (stereo not given) gave a cell viability of 1.06.

Turning to `O=C(O)c1ccc(O)cc1O`, the cell viability was determined as 1.5.

On to `OCc1ccccc1`, for which the cell viability is 0.963.

Molecule `COc1cc(NS(C)(=O)=O)ccc1Nc1c2ccccc2nc2ccccc12` displayed a cell viability of 0.629.

For the molecule `O=C(O)CC(=O)CC(=O)O`, the cell viability came out at 1.58.

With `CC/C=C\C/C=C\C/C=C\CCCCCCCC(=O)O`, the cell viability stood at 1.04.

Regarding `O=C1CC[C@@H](C(=O)O)N1`, the cell viability worked out at 1.03.

Molecule `C[C@H](C[C@H](O)[C@@H](O)C(C)(C)O)C1=C2C[C@H](O)[C@H]3[C@@]4(C)CCC(=O)C(C)(C)[C@@H]4CC[C@]3(C)[C@@]2(C)CC1` registered a cell viability of 1.16.

Take `CS(=O)(=O)c1ccc([C@@H](O)[C@@H](CO)NC(=O)C(Cl)Cl)cc1`: the cell viability worked out at 1.

In the case of `CC1(C)S[C@@H]2[C@H](NC(=O)C(C(=O)O)c3ccccc3)C(=O)N2[C@H]1C(=O)O` (stereo not given in full), the cell viability amounted to 1.03.

`O=C(O)CCCC(=O)O` displayed a cell viability of 0.9.

Consider `C[Si](C)(C)CCOCn1ccc2c(-c3cn[nH]c3)ncnc21`, for which the cell viability is 0.919.

Regarding `CCCCCCCC/C=C\CCCCCCCC(=O)O`, the cell viability was found to be 1.11.

The molecule `CC(=O)/C(C)=N/O` came in with a cell viability of 0.945.

`CC(C)(CO)C(O)C(=O)NCCC(=O)O` (stereo not given): the cell viability was 0.85.

In turn, `O=c1cc(CO)occ1O` came in with a cell viability of 1.02.

Molecule `Nc1ccccc1S(N)(=O)=O` yielded a cell viability of 0.86.

Turning to `OCC1=C[C@@H](O)[C@@H]2C=CO[C@@H](O[C@@H]3O[C@H](CO)[C@@H](O)[C@H](O)[C@H]3O)[C@H]12`, the cell viability worked out at 0.955.

For `COc1cc(O)c(C(C)=O)c(OC)c1`, the cell viability was determined as 0.747.

The test system of the next test is PREPP (mouse prostate epithelium Trp53/Pten KO). The description is as above. The settings on record: 5 µM; 3 days.
`CC[C@H](C)C(=O)O[C@H]1CCC=C2C=C[C@H](C)[C@H](CC[C@@H]3C[C@@H](O)CC(=O)O3)[C@H]21` yielded a cell viability of 0.672.

`CC(=O)Nc1ccc(O)cc1` displayed a cell viability of 0.963.

For the molecule `CC[C@@H](CO)NCCN[C@@H](CC)CO`, the cell viability came out at 0.981.

The molecule `C[C@H]1[C@H](OC(=O)CCC(=O)O)O[C@@H]2O[C@@]3(C)CC[C@H]4[C@H](C)CC[C@@H]1[C@@]24OO3` came in with a cell viability of 0.785.

In turn, `COc1cc(C(=O)O)ccc1O` registered a cell viability of 1.04.

Molecule `O=C(O)C=Cc1ccc(O)cc1` showed a cell viability of 0.96.

Turning to `COc1cnc(NS(=O)(=O)c2ccc(N)cc2)nc1`, the cell viability stood at 0.901.

For the molecule `C[N+](C)(C)CC(O)CC(=O)[O-]` (stereo not given), the cell viability worked out at 0.809.

The molecule `N[C@@H](Cc1c[nH]c2ccc(O)cc12)C(=O)O` registered a cell viability of 0.726.

`CN1CCC[C@H]1c1cccnc1` had a cell viability of 1.3.

On to `NCC(=O)CCC(=O)O`, for which the cell viability worked out at 0.906.

For the molecule `N[C@@H](CCC(=O)O)C(=O)[O-].[Na+]`, the cell viability was 1.09.

Molecule `NC(=O)c1ccc([N+](=O)[O-])cc1Cl` came in with a cell viability of 0.905.

`Nc1ccc(O)c(C(=O)O)c1` registered a cell viability of 0.962.

On to `O=c1ccn([C@@H]2O[C@H](COP(=O)(O)OP(=O)(O)OP(=O)(O)O)[C@@H](O)[C@H]2O)c(=O)[nH]1`, for which the cell viability stood at 1.07.

`C/C=C\c1ccc(O)c(OC)c1` came in with a cell viability of 1.02.

In the case of `C/C=C1/[C@H](O[C@@H]2O[C@H](CO)[C@@H](O)[C@H](O)[C@H]2O)OC=C(C(=O)OC)[C@H]1CC(=O)OCCc1ccc(O)c(O)c1`, the cell viability was determined as 1.27.

Take `C[C@]12CCC(=O)C=C1CC[C@@H]1[C@@H]2[C@@H](O)C[C@@]2(C)[C@H]1CC[C@]2(O)C(=O)CO`: the cell viability was 0.805.

Consider `C[C@@H](c1ncncc1F)[C@](O)(Cn1cncn1)c1ccc(F)cc1F`, for which the cell viability is 0.947.

`C[Se]CC[C@H](N)C(=O)O` returned a cell viability of 0.76.

Consider `C=C1/C(=C\C=C2/CCC[C@]3(C)[C@@H]([C@H](C)CCCC(C)(C)O)CC[C@@H]23)C[C@@H](O)C[C@@H]1O`, for which the cell viability was found to be 0.949.

In turn, `CC(C)C(O)C(=O)O` (stereo not given) came in with a cell viability of 1.04.

`O=C(O)c1ccc(O)cc1O` had a cell viability of 0.92.

Turning to `OCc1ccccc1`, the cell viability was 0.989.

In turn, `COc1cc(NS(C)(=O)=O)ccc1Nc1c2ccccc2nc2ccccc12` came in with a cell viability of 0.73.

In the case of `O=C(O)CC(=O)CC(=O)O`, the cell viability was 0.928.

For the molecule `CC/C=C\C/C=C\C/C=C\CCCCCCCC(=O)O`, the cell viability was found to be 1.02.

Regarding `O=C1CC[C@@H](C(=O)O)N1`, the cell viability was determined as 1.04.

Consider `C[C@H](C[C@H](O)[C@@H](O)C(C)(C)O)C1=C2C[C@H](O)[C@H]3[C@@]4(C)CCC(=O)C(C)(C)[C@@H]4CC[C@]3(C)[C@@]2(C)CC1`, for which the cell viability is 1.

`CS(=O)(=O)c1ccc([C@@H](O)[C@@H](CO)NC(=O)C(Cl)Cl)cc1` yielded a cell viability of 1.2.

Molecule `CC1(C)S[C@@H]2[C@H](NC(=O)C(C(=O)O)c3ccccc3)C(=O)N2[C@H]1C(=O)O` (stereo not given in full) displayed a cell viability of 0.87.

Turning to `O=C(O)CCCC(=O)O`, the cell viability came to 1.09.

Molecule `C[Si](C)(C)CCOCn1ccc2c(-c3cn[nH]c3)ncnc21` returned a cell viability of 0.937.

`CCCCCCCC/C=C\CCCCCCCC(=O)O`: the cell viability is 0.987.

In turn, `CC(=O)/C(C)=N/O` displayed a cell viability of 1.01.

On to `CC(C)(CO)C(O)C(=O)NCCC(=O)O` (stereo not given), for which the cell viability stood at 0.808.

For the molecule `O=c1cc(CO)occ1O`, the cell viability was 1.03.

In turn, `Nc1ccccc1S(N)(=O)=O` displayed a cell viability of 1.08.

`OCC1=C[C@@H](O)[C@@H]2C=CO[C@@H](O[C@@H]3O[C@H](CO)[C@@H](O)[C@H](O)[C@H]3O)[C@H]12` returned a cell viability of 1.22.

`COc1cc(O)c(C(C)=O)c(OC)c1` gave a cell viability of 1.13.
